System: BL-2 cells
Experiment: Prodrug uptake by BL-2 cells, intracellular boron by curcumin assay
Type: cell-based
Settings: prodrug 1 μM, 1 h, cells only 0.54

Row | SMILES | ∆A (mean), baseline corrected absorbance at 550 nm proportional to boron
1 | CC1(C)OB(c2ccc(COC(=O)N(Cc3cccc(CN4CCCCC4)c3)[c-]3cccc3)cc2)OC1(C)C.[Fe+2].c1cc[cH-]c1 [prodrug 8] | 1.90
2 | COC(=O)CCCCCn1cc(CN(C(=O)OCc2ccc(B3OC(C)(C)C(C)(C)O3)cc2)[c-]2cccc2)nn1.[Fe+2].c1cc[cH-]c1 [prodrug 9] | 0.98

— paper PMC7321169, “N-Alkylaminoferrocene-Based Prodrugs Targeting Mitochondria of Cancer Cells” (Molecules, 2020)
